Results taken from PubChem BioAssay AID1917 (Vanderbilt High Throughput Screening Facility, 2009).
Screen size: about 3,000 compounds; about 1,600 (53%) were called active. The set was probably picked from earlier hits. This list was built around the results that the source calls inconclusive (neither active nor inactive); the mix of calls is not that of the screen.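 How the source made its calls: active means Flux at 10 µM at least 3 SD below or above vehicle control mean in one or both replicates; inconclusive means no clear call, values can overlap the other calls; inactive means the rest.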

Protein sequences, listed by entry. Tags and fused reporters are not part of them. Lines headed by an entry give the natural chain unless they say otherwise; changes in a name come on top.
UniProt P48048: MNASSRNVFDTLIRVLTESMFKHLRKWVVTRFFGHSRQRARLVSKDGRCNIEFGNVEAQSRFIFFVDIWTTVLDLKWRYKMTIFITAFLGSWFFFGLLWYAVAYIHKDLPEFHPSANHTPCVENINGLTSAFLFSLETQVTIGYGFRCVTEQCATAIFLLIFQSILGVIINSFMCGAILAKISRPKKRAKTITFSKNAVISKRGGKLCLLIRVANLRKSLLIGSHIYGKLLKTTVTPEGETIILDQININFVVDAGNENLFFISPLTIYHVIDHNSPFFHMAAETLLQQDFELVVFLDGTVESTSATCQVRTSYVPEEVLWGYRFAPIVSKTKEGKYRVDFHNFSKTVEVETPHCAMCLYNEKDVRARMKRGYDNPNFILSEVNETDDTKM

The compounds below were run against ATP-sensitive inward rectifier potassium channel 1 (Homo sapiens) (UniProt P48048) (assay: retested modulators of human Kir1.1 channel – cell-based, thallium flux, duplicate, resupplied hits, confirmation (AID 1917)). Conditions: ROMK thallium flux, fluorescence ratio; at 10 µM; active compounds read low.
`COc1cc(C(=O)N/N=C/c2sccc2C)cc(OC)c1OC` was tested, and the normalized thallium flux (F/F0 slope) was inconclusive: 0.098.
With `CCN(CC)S(=O)(=O)c1ccc(OC)c(NC(=O)CSc2cc(C)ccc2C)c1` the normalized thallium flux (F/F0 slope) was active: 0.0566.
`COc1cccc(-c2nnc(SCC(=O)Nc3cc(C)ccc3OC)n2N)c1` was tested, and the normalized thallium flux (F/F0 slope) was inconclusive: 0.0698.
For `CNC(=O)c1nnsc1S(=O)c1ccc(Cl)cc1` (stereo not given), the normalized thallium flux (F/F0 slope) was active: 0.049.
`c1ccc2c(-c3cc(C4CCNCC4)[nH]n3)cccc2c1` was tested, and the normalized thallium flux (F/F0 slope) was active: 0.0643.
For `c1ccc2c(N3CCCCCC3)nc(-c3ccncc3)nc2c1`, the normalized thallium flux (F/F0 slope) was inconclusive: 0.0741.
With `CCN1CCS/C1=C\C=C\C1=[N+](CC)CCS1` the normalized thallium flux (F/F0 slope) was inconclusive: 0.0691.
With `CCOC(=O)C1=NN(C(=O)Cc2ccccc2)C(O)(C(C)(C)C)C1` (stereo not given) the normalized thallium flux (F/F0 slope) was inactive: 0.0766.
For `C[n+]1c2n(c3ccccc31)N=C(c1cc(C(C)(C)C)c(O)c(C(C)(C)C)c1)CS2`, the normalized thallium flux (F/F0 slope) was active: 0.0388.
In the case of `CC(C)c1nc(SCC(=O)Nc2c[nH]c(=O)[nH]c2=O)c2cnn(-c3ccccc3)c2n1`, the normalized thallium flux (F/F0 slope) is reported as inactive: 0.0853.
`O=C(N/N=C/c1c(O)n(-c2ccccc2Cl)c(=O)c2ccccc12)c1cccnc1` was tested, and the normalized thallium flux (F/F0 slope) was active: 0.0578.
With `COc1ccc2nc3c(cc2c1)c(NC(=O)c1cccs1)nn3CC(C)C` the normalized thallium flux (F/F0 slope) was inactive: 0.0723.
For `CC(C)(C)NC(=O)COC(=O)c1snc(C(=O)NC2CCCCC2)c1N`, the normalized thallium flux (F/F0 slope) was inactive: 0.0716.
With `c1ccc2sc(Sc3ncnc4sccc34)nc2c1` the normalized thallium flux (F/F0 slope) was inactive: 0.0781.
For `CC(C)(C)n1nc(C2CC2)cc1NC(=O)Nc1ccc(Cl)cc1`, the normalized thallium flux (F/F0 slope) was inactive: 0.0782.
`Cc1ccc(C)c(N2CCN(S(=O)(=O)c3ccc4[nH]c(=O)c(=O)[nH]c4c3)CC2)c1` was tested, and the normalized thallium flux (F/F0 slope) was inconclusive: 0.0956.
For `OCCOCCNc1ncnc2sc(-c3ccccc3)cc12`, the normalized thallium flux (F/F0 slope) was active: 0.064.
For `CCCN1C(=O)c2cc(C(=O)Nc3ccc(OC)cc3OC)ccc2C1Nc1ccc(OC)cc1OC` (stereo not given), the normalized thallium flux (F/F0 slope) was inconclusive: 0.067.
In the case of `C=CCn1c(SCc2c(C)noc2C)nc2cc(C(=O)O)ccc2c1=O`, the normalized thallium flux (F/F0 slope) is reported as inconclusive: 0.0953.
In the case of `O=C(c1ccco1)N1CCN(c2ncnc3c2nnn3Cc2ccccc2Cl)CC1`, the normalized thallium flux (F/F0 slope) is reported as inactive: 0.0701.
In the case of `CCCc1cc(C(=O)Nc2ccccc2SC)no1`, the normalized thallium flux (F/F0 slope) is reported as inconclusive: 0.069.
For `Cc1cc(/C=N/NC(N)=O)c(C)n1-c1ccc(F)cc1`, the normalized thallium flux (F/F0 slope) was inconclusive: 0.095.
With `Cc1cnnn1-c1ccc([N+](=O)[O-])cc1` the normalized thallium flux (F/F0 slope) was inactive: 0.0772.
With `CN(Cc1ccccc1NS(=O)(=O)c1ccc2ccccc2c1)C1CCCCC1` the normalized thallium flux (F/F0 slope) was inconclusive: 0.0664.
`CCOC(=O)/C(=C\c1cccnc1)C(=O)c1cc(C(C)=O)c(Nc2ccccc2)s1` was tested, and the normalized thallium flux (F/F0 slope) was active: 0.0505.
For `COC(=O)[C@@]1(Cc2ccc(F)cc2)[C@H]2c3cc(C(=O)N4CCCC4)n(CCc4ccc(O)c(O)c4)c3C[C@H]2CN1C(=O)c1ccccc1`, the normalized thallium flux (F/F0 slope) was inconclusive: 0.0706.
In the case of `CCCCn1c(=N)n(CC(O)COc2ccccc2)c2ccccc21` (stereo not given), the normalized thallium flux (F/F0 slope) is reported as inconclusive: 0.0673.
With `Cc1cc(/C=N/NC(N)=S)c(C)n1-c1ccc(Cl)cc1` the normalized thallium flux (F/F0 slope) was inactive: 0.091.
`COc1ccc(C(=O)NCCSC2CCCCC2)cc1` was tested, and the normalized thallium flux (F/F0 slope) was inconclusive: 0.0723.
With `Cc1ccc(C(C(=O)NC2CCCCC2)N(Cc2ccco2)C(=O)Cc2c[nH]c3ccccc23)o1` (stereo not given) the normalized thallium flux (F/F0 slope) was inconclusive: 0.07.
In the case of `Cc1cc(C(=O)CSc2nnnn2-c2ccc(O)cc2)c(C)n1Cc1ccc2c(c1)OCO2`, the normalized thallium flux (F/F0 slope) is reported as inconclusive: 0.0726.
`CCOc1ccc(C2C(C(=O)c3ccc(C)o3)=C(O)C(=O)N2CCN2CCOCC2)cc1OC` (stereo not given) was tested, and the normalized thallium flux (F/F0 slope) was inactive: 0.0799.
For `Cc1cccc(Oc2ccc(NC(=O)c3ccccc3C(=O)O)cc2)c1C`, the normalized thallium flux (F/F0 slope) was inactive: 0.0761.
With `COc1cc(C)nc(NC(=O)COc2ccc(Cl)cc2C)n1` the normalized thallium flux (F/F0 slope) was inconclusive: 0.072.
For `N#C/C(=N\Nc1cccc2ccccc12)c1nnc2n1CCCCC2`, the normalized thallium flux (F/F0 slope) was active: 0.0587.
For `Cc1cccc(N2C(=O)CC(N3CCN(Cc4ccc(Cl)cc4)CC3)C2=O)c1` (stereo not given), the normalized thallium flux (F/F0 slope) was inconclusive: 0.0706.
`COc1ccc(OC)c(C2CC(c3c(-c4ccccc4)c4cc(Cl)ccc4[nH]c3=O)=NN2S(C)(=O)=O)c1` (stereo not given) was tested, and the normalized thallium flux (F/F0 slope) was inconclusive: 0.0717.
In the case of `CN(C)c1ccc2c(c1)OC(N)=C(C#N)C2c1cccc(F)c1` (stereo not given), the normalized thallium flux (F/F0 slope) is reported as active: 0.0635.
In the case of `O=C(NCc1ccccn1)C1CC(c2ccccc2O)=NO1` (stereo not given), the normalized thallium flux (F/F0 slope) is reported as inactive: 0.0877.
With `O=c1[nH]c(CN2CCN(c3ccc([N+](=O)[O-])cc3)CC2)nc2ccsc12` the normalized thallium flux (F/F0 slope) was active: 0.0595.
`Cc1ccc(-n2c(C)cc(C3N=C(N)Nc4nc5ccccc5n43)c2C)c(C)c1` (stereo not given) was tested, and the normalized thallium flux (F/F0 slope) was active: 0.0466.
With `CC(=O)c1sc(NC(=O)c2c(F)cccc2F)nc1-c1ccccc1` the normalized thallium flux (F/F0 slope) was inactive: 0.0781.
`CC1CN(C(=O)c2cc3c(s2)CCC3)CC(C)O1` (stereo not given) was tested, and the normalized thallium flux (F/F0 slope) was inactive: 0.0856.
With `COc1cccc(-c2nc(C=O)cs2)c1` the normalized thallium flux (F/F0 slope) was active: 0.103.
`CN(C)c1ccc(/C=C2\CCC/C(=C\c3ccccc3)C2=O)cc1` was tested, and the normalized thallium flux (F/F0 slope) was inconclusive: 0.063.
In the case of `COc1ccccc1-c1cc(C(F)(F)F)nc(S(=O)(=O)CCCC(=O)N2CCOCC2)n1`, the normalized thallium flux (F/F0 slope) is reported as inconclusive: 0.0678.
In the case of `CC12COC3(P(=O)(c4ccccc4)c4ccccc4)CC1CCC23CP(=O)(c1ccccc1)c1ccccc1` (stereo not given), the normalized thallium flux (F/F0 slope) is reported as active: 0.0509.
With `Cc1ccc(C(=O)N2CCN(S(=O)(=O)c3ccccc3)CC2)cc1` the normalized thallium flux (F/F0 slope) was inconclusive: 0.0716.
`COc1ccc(N2CCN(c3c(S(=O)(=O)c4ccccc4)cnc4ccc(OC)cc34)CC2)cc1` was tested, and the normalized thallium flux (F/F0 slope) was inconclusive: 0.0691.
In the case of `CCOC(=O)C1(CCOc2ccccc2)CCN(Cc2cccn2-c2ncccn2)CC1`, the normalized thallium flux (F/F0 slope) is reported as inconclusive: 0.0662.
With `c1ccc(-n2cnc3cc(NCc4ccco4)ccc32)cc1` the normalized thallium flux (F/F0 slope) was inconclusive: 0.097.
`Cc1c(C(=O)O)oc2ccc(S(=O)(=O)NCc3ccc4c(c3)OCO4)cc12` was tested, and the normalized thallium flux (F/F0 slope) was inactive: 0.0746.
For `Cc1ccccc1NC(=O)COC(=O)c1ccc(S(C)(=O)=O)c([N+](=O)[O-])c1`, the normalized thallium flux (F/F0 slope) was inconclusive: 0.073.
With `Cn1c(=O)n(C)c2cc(NS(=O)(=O)c3ccc4c(c3)CCCC4)ccc21` the normalized thallium flux (F/F0 slope) was inconclusive: 0.0722.
`O=C1c2cccc3c(N4CCCCC4)ccc(c23)C(=O)N1c1ccc(O)cc1` was tested, and the normalized thallium flux (F/F0 slope) was active: 0.0506.
